Results are given in words; binding and its absence hold for the method and conditions named. Binding seen in cells or lysates may run through a third protein. Some entries that bind do so weakly or less than the wild type.
Target: biotinylated pY54-H3 peptide, pY54-H3 (44-59) (human)
Assay: pull-down; biotinylated peptide on streptavidin-sepharose beads incubated with lysates of VCaP cells treated with 1 uM (R)-9b or SHP099 for 18 h; immunoblot for NCOR1 and NCOR2; pAKT peptide as control; only the target purified

Protein sequences, listed by entry. Tags and fused reporters are not part of them.
UniProt O75376: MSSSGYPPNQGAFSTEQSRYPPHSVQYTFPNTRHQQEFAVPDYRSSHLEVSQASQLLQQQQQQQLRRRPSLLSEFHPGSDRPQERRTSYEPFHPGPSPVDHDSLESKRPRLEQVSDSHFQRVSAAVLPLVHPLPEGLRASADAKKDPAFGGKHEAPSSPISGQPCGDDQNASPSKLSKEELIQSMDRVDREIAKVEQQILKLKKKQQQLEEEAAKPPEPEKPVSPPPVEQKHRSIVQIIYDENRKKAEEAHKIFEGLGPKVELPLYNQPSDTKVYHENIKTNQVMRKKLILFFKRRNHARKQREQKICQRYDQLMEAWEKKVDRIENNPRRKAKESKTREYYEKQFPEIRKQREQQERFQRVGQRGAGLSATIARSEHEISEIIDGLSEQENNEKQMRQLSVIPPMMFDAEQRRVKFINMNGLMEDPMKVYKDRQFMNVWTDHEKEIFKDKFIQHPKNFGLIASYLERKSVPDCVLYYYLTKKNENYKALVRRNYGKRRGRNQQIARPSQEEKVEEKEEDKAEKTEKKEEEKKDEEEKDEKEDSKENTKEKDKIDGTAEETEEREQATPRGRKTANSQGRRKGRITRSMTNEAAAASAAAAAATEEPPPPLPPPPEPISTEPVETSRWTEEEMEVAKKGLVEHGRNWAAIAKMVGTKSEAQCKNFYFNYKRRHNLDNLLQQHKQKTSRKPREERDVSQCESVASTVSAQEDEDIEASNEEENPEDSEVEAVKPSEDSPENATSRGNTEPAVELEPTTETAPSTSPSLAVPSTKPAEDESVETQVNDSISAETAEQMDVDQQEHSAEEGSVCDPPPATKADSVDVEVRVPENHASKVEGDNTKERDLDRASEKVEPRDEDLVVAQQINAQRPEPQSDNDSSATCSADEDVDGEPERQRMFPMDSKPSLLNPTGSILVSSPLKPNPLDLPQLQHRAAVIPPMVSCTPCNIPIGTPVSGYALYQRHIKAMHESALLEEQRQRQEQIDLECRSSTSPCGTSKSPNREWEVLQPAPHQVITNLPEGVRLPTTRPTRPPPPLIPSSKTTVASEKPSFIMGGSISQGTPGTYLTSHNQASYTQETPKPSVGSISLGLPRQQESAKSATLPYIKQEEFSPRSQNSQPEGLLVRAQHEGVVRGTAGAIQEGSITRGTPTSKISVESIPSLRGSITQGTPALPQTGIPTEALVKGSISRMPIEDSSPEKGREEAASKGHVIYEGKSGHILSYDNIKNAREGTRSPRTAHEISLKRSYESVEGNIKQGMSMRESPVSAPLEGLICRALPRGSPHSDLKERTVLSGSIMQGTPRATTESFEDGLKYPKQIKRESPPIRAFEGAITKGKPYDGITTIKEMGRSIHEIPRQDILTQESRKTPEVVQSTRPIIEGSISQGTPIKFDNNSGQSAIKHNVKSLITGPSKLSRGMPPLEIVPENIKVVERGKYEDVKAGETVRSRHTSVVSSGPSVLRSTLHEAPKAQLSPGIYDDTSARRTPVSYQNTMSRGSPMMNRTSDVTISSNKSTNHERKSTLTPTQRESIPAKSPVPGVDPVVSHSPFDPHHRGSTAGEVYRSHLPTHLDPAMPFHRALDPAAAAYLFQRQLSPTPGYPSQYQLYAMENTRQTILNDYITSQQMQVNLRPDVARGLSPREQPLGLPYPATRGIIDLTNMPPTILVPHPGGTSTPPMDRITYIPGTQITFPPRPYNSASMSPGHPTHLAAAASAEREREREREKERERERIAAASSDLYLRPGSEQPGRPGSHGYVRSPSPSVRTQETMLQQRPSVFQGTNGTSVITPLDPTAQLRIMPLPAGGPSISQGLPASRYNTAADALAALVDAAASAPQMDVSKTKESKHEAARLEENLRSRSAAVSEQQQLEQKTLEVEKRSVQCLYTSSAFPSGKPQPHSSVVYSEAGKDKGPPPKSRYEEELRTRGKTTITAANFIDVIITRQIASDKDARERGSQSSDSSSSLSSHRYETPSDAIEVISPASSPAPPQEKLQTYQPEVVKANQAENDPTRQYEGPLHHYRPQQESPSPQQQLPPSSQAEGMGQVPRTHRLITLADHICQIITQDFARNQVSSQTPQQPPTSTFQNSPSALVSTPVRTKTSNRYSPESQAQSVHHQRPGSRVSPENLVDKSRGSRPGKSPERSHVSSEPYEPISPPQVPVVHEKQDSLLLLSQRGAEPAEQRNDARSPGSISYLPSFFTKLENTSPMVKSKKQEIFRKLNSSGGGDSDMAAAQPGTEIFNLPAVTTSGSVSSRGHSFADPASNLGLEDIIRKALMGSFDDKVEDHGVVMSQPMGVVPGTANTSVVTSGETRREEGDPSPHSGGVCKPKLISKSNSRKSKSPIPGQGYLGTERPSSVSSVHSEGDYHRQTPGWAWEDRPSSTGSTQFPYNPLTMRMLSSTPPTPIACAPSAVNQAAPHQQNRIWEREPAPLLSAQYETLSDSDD

binding: binds
Substance: NCOR1 (from UniProt O75376 1-2440)

Reference: article PMC11224269
